# In the supplement of paper PMC8728848:
# The list shows a part of the results.
# Key:
# Assay in all cases: glycan array binding signal (z-score within array); higher = stronger binding
# Conditions in all cases: glycan notation: IUPAC condensed, linker removed; mutation: D21K
# [1] = target: Fuc(a1-2)[Gal(a1-3)]Gal(b1-4)GlcNAc(b1-2)Man(a1-3)[Fuc(a1-2)[Gal(a1-3)]Gal(b1-4)GlcNAc(b1-2)Man(a1-6)]Man(b1-4)GlcNAc(b1-4)GlcNAc
# Summary of the method: (§1)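 The binding signal is a Z-score computed within each array. Data were drawn from 3228 arrays in the Consortium for Functional Glycomics database, restricted to those with a known protein sequence. Scores were averaged over arrays of the same protein sequence at different concentrations or buffers, and over linkers, and negative values can be taken as non-binding.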
# [2] = target: Fuc(a1-2)[Gal(a1-3)]Gal(b1-4)GlcNAc(b1-2)Man(a1-3)[Fuc(a1-2)[Gal(a1-3)]Gal(b1-4)GlcNAc(b1-2)Man(a1-6)]Man(b1-4)GlcNAc(b1-4)[Fuc(a1-6)]GlcNAc
# Summary of the method: as §1
# [3] = target: Fuc(a1-2)[Gal(a1-3)]Gal(b1-4)GlcNAc(b1-3)GalNAc
# Summary of the method: as §1
# [4] = target: Fuc(a1-2)[Gal(a1-3)]Gal(b1-4)GlcNAc(b1-3)[Fuc(a1-2)[Gal(a1-3)]Gal(b1-4)GlcNAc(b1-6)]GalNAc
# Summary of the method: as §1
# [5] = target: Fuc(a1-2)[Gal(a1-3)]Gal(b1-4)GlcNAc(b1-6)GalNAc
# Summary of the method: as §1
# [6] = target: Fuc(a1-2)[Gal(a1-3)]Gal(b1-4)[Fuc(a1-3)]Glc
# Summary of the method: as §1
# [7] = target: Fuc(a1-2)[Gal(a1-3)]Gal(b1-4)[Fuc(a1-3)]GlcNAc
# Summary of the method: as §1
# [8] = target: Fuc(a1-2)[Gal(a1-3)]Gal(b1-4)[Fuc(a1-3)]GlcNAc(b1-3)GalNAc
# Summary of the method: as §1
# [9] = target: Fuc(a1-2)[Gal(a1-4)]Gal(b1-4)GlcNAc
# Summary of the method: as §1
# [10] = target: Fuc(a1-2)[GalNAc(a1-3)]Gal
# Summary of the method: as §1
# [11] = target: Fuc(a1-2)[GalNAc(a1-3)]Gal(b1-3)GalNAc(a1-3)[Fuc(a1-2)]Gal(b1-4)GlcNAc
# Summary of the method: as §1
# [12] = target: Fuc(a1-2)[GalNAc(a1-3)]Gal(b1-3)GalNAc(b1-3)Gal(a1-4)Gal(b1-4)Glc
# Summary of the method: as §1
# [13] = target: Fuc(a1-2)[GalNAc(a1-3)]Gal(b1-3)GlcNAc
# Summary of the method: as §1
# [14] = target: Fuc(a1-2)[GalNAc(a1-3)]Gal(b1-3)GlcNAc(b1-2)Man(a1-3)[Fuc(a1-2)[GalNAc(a1-3)]Gal(b1-3)GlcNAc(b1-2)Man(a1-6)]Man(b1-4)GlcNAc(b1-4)GlcNAc
# Summary of the method: as §1
# [15] = target: Fuc(a1-2)[GalNAc(a1-3)]Gal(b1-3)GlcNAc(b1-2)Man(a1-3)[Fuc(a1-2)[GalNAc(a1-3)]Gal(b1-3)GlcNAc(b1-2)Man(a1-6)]Man(b1-4)GlcNAc(b1-4)[Fuc(a1-6)]GlcNAc
# Summary of the method: as §1
# [16] = target: Fuc(a1-2)[GalNAc(a1-3)]Gal(b1-3)GlcNAc(b1-3)GalNAc
# Summary of the method: as §1
# [17] = target: Fuc(a1-2)[GalNAc(a1-3)]Gal(b1-3)GlcNAc(b1-6)GalNAc
# Summary of the method: as §1
# [18] = target: Fuc(a1-2)[GalNAc(a1-3)]Gal(b1-4)Glc
# Summary of the method: as §1
# [19] = target: Fuc(a1-2)[GalNAc(a1-3)]Gal(b1-4)GlcNAc
# Summary of the method: as §1
# [20] = target: Fuc(a1-2)[GalNAc(a1-3)]Gal(b1-4)GlcNAc(b1-2)Man
# Summary of the method: as §1
# [21] = target: Fuc(a1-2)[GalNAc(a1-3)]Gal(b1-4)GlcNAc(b1-2)Man(a1-3)[Fuc(a1-2)[GalNAc(a1-3)]Gal(b1-4)GlcNAc(b1-2)Man(a1-6)]Man(b1-4)GlcNAc(b1-4)GlcNAc
# Summary of the method: as §1
# [22] = target: Fuc(a1-2)[GalNAc(a1-3)]Gal(b1-4)GlcNAc(b1-2)Man(a1-3)[Fuc(a1-2)[GalNAc(a1-3)]Gal(b1-4)GlcNAc(b1-2)Man(a1-6)]Man(b1-4)GlcNAc(b1-4)[Fuc(a1-6)]GlcNAc
# Summary of the method: as §1
# [23] = target: Fuc(a1-2)[GalNAc(a1-3)]Gal(b1-4)GlcNAc(b1-3)Gal(b1-4)GlcNAc
# Summary of the method: as §1
# [24] = target: Fuc(a1-2)[GalNAc(a1-3)]Gal(b1-4)GlcNAc(b1-3)Gal(b1-4)GlcNAc(b1-3)Gal(b1-4)GlcNAc
# Summary of the method: as §1
# [25] = target: Fuc(a1-2)[GalNAc(a1-3)]Gal(b1-4)GlcNAc(b1-3)GalNAc
# Summary of the method: as §1
# [26] = target: Fuc(a1-2)[GalNAc(a1-3)]Gal(b1-4)GlcNAc(b1-3)[Fuc(a1-2)[GalNAc(a1-3)]Gal(b1-4)GlcNAc(b1-6)]GalNAc
# Summary of the method: as §1
# [27] = target: Fuc(a1-2)[GalNAc(a1-3)]Gal(b1-4)GlcNAc(b1-6)GalNAc
# Summary of the method: as §1
# [28] = target: Fuc(a1-2)[GalNAc(a1-3)]Gal(b1-4)[Fuc(a1-3)]GlcNAc
# Summary of the method: as §1
# [29] = target: Fuc(a1-2)[GalNAc(a1-3)]Gal(b1-4)[Fuc(a1-3)]GlcNAc(b1-3)GalNAc
# Summary of the method: as §1
# [30] = target: Fuc(a1-2)[GalNAc(a1-4)]Gal(b1-4)GlcNAc
# Summary of the method: as §1
# [31] = target: Fuc(a1-2)[GalNAc(b1-3)]Gal
# Summary of the method: as §1
# [32] = target: Fuc(a1-3)GlcNAc
# Summary of the method: as §1
# [33] = target: Fuc(a1-3)[Gal(b1-4)]Glc6S
# Summary of the method: as §1
# [34] = target: Fuc(a1-3)[Gal(b1-4)]GlcNAc
# Summary of the method: as §1
# [35] = target: Fuc(a1-3)[Gal(b1-4)]GlcNAc(b1-2)Man
# Summary of the method: as §1
# [36] = target: Fuc(a1-3)[Gal(b1-4)]GlcNAc(b1-2)Man(a1-3)[Fuc(a1-3)[Gal(b1-4)]GlcNAc(b1-2)Man(a1-6)]Man(b1-4)GlcNAc(b1-4)GlcNAc
# Summary of the method: as §1
# [37] = target: Fuc(a1-3)[Gal(b1-4)]GlcNAc(b1-2)Man(a1-3)[Fuc(a1-3)[Gal(b1-4)]GlcNAc(b1-2)Man(a1-6)]Man(b1-4)GlcNAc(b1-4)[Fuc(a1-6)]GlcNAc
# Summary of the method: as §1
# [38] = target: Fuc(a1-3)[Gal(b1-4)]GlcNAc(b1-3)Gal(b1-3)[Fuc(a1-4)]GlcNAc
# Summary of the method: as §1
# [39] = target: Fuc(a1-3)[Gal(b1-4)]GlcNAc(b1-3)Gal(b1-4)[Fuc(a1-3)]GlcNAc
# Summary of the method: as §1
# [40] = target: Fuc(a1-3)[Gal(b1-4)]GlcNAc(b1-3)Gal(b1-4)[Fuc(a1-3)]GlcNAc(b1-3)Gal(b1-4)[Fuc(a1-3)]GlcNAc
# Summary of the method: as §1
# [41] = target: Fuc(a1-3)[Gal(b1-4)]GlcNAc(b1-3)GalNAc
# Summary of the method: as §1
# [42] = target: Fuc(a1-3)[Gal(b1-4)]GlcNAc(b1-6)GalNAc
# Summary of the method: as §1
# [43] = target: Fuc(a1-3)[Gal(b1-4)]GlcNAc(b1-6)[Gal(b1-3)GlcNAc(b1-3)]Gal(b1-4)Glc
# Summary of the method: as §1
# [44] = target: Fuc(a1-3)[Gal(b1-4)]GlcNAc6S
# Summary of the method: as §1
# [45] = target: Fuc(a1-3)[Gal3S(b1-4)]Glc
# Summary of the method: as §1
# [46] = target: Fuc(a1-3)[Gal3S(b1-4)]GlcNAc
# Summary of the method: as §1
# [47] = target: Fuc(a1-3)[Gal3S(b1-4)]GlcNAc6S
# Summary of the method: as §1
# [48] = target: Fuc(a1-3)[GalNAc(b1-4)]GlcNAc
# Summary of the method: as §1
# [49] = target: Fuc(a1-3)[GalNAc(b1-4)]GlcNAc6S
# Summary of the method: as §1
# [50] = target: Fuc(a1-4)GlcNAc
# Summary of the method: as §1
# [51] = target: Fuc(b1-3)GlcNAc
# Summary of the method: as §1
# [52] = target: Gal(a1-2)Gal
# Summary of the method: as §1
# [53] = target: Gal(a1-3)Gal
# Summary of the method: as §1
# [54] = target: Gal(a1-3)Gal(b1-3)GlcNAc
# Summary of the method: as §1
# [55] = target: Gal(a1-3)Gal(b1-3)GlcNAc(b1-2)Man
# Summary of the method: as §1
# [56] = target: Gal(a1-3)Gal(b1-3)GlcNAc(b1-2)Man(a1-3)[Gal(a1-3)Gal(b1-3)GlcNAc(b1-2)Man(a1-6)]Man(b1-4)GlcNAc(b1-4)GlcNAc
# Summary of the method: as §1
# [57] = target: Gal(a1-3)Gal(b1-3)GlcNAc(b1-3)GalNAc
# Summary of the method: as §1
# [58] = target: Gal(a1-3)Gal(b1-3)GlcNAc(b1-6)GalNAc
# Summary of the method: as §1
# [59] = target: Gal(a1-3)Gal(b1-3)[Fuc(a1-4)]GlcNAc(b1-2)Man(a1-3)[Gal(a1-3)Gal(b1-3)[Fuc(a1-4)]GlcNAc(b1-2)Man(a1-6)]Man(b1-4)GlcNAc(b1-4)GlcNAc
# Summary of the method: as §1
# [60] = target: Gal(a1-3)Gal(b1-4)Glc
# Summary of the method: as §1
binder,measurement,setting,value
KILRGVCKKIMRTFLRRISKKILTGKK [C7A (Sus scrofa)],glycan array binding signal (z-score),[1],0.866
same,glycan array binding signal (z-score),[2],-0.338
same,glycan array binding signal (z-score),[3],-1.37
same,glycan array binding signal (z-score),[4],-0.287
same,glycan array binding signal (z-score),[5],0.121
same,glycan array binding signal (z-score),[6],-0.38
same,glycan array binding signal (z-score),[7],1.3
same,glycan array binding signal (z-score),[8],-0.079
same,glycan array binding signal (z-score),[9],1.25
same,glycan array binding signal (z-score),[10],-0.22
same,glycan array binding signal (z-score),[11],-0.103
same,glycan array binding signal (z-score),[12],-0.093
same,glycan array binding signal (z-score),[13],1.29
same,glycan array binding signal (z-score),[14],-0.902
same,glycan array binding signal (z-score),[15],0.931
same,glycan array binding signal (z-score),[16],0.129
same,glycan array binding signal (z-score),[17],-0.946
same,glycan array binding signal (z-score),[18],0.049
same,glycan array binding signal (z-score),[19],-0.572
same,glycan array binding signal (z-score),[20],0.411
same,glycan array binding signal (z-score),[21],-0.971
same,glycan array binding signal (z-score),[22],-0.327
same,glycan array binding signal (z-score),[23],0.476
same,glycan array binding signal (z-score),[24],-0.58
same,glycan array binding signal (z-score),[25],-0.663
same,glycan array binding signal (z-score),[26],0.698
same,glycan array binding signal (z-score),[27],-0.922
same,glycan array binding signal (z-score),[28],0.829
same,glycan array binding signal (z-score),[29],0.81
same,glycan array binding signal (z-score),[30],-1.83
same,glycan array binding signal (z-score),[31],-2.16
same,glycan array binding signal (z-score),[32],0.07
same,glycan array binding signal (z-score),[33],0.358
same,glycan array binding signal (z-score),[34],-0.883
same,glycan array binding signal (z-score),[35],0.088
same,glycan array binding signal (z-score),[36],-0.57
same,glycan array binding signal (z-score),[37],0.986
same,glycan array binding signal (z-score),[38],-0.475
same,glycan array binding signal (z-score),[39],-0.58
same,glycan array binding signal (z-score),[40],-0.191
same,glycan array binding signal (z-score),[41],1.11
same,glycan array binding signal (z-score),[42],-0.499
same,glycan array binding signal (z-score),[43],1.05
same,glycan array binding signal (z-score),[44],-0.09
same,glycan array binding signal (z-score),[45],0.754
same,glycan array binding signal (z-score),[46],-0.017
same,glycan array binding signal (z-score),[47],0.794
same,glycan array binding signal (z-score),[48],0.298
same,glycan array binding signal (z-score),[49],0.361
same,glycan array binding signal (z-score),[50],-0.294
same,glycan array binding signal (z-score),[51],-0.517
same,glycan array binding signal (z-score),[52],-1.04
same,glycan array binding signal (z-score),[53],0.724
same,glycan array binding signal (z-score),[54],0.967
same,glycan array binding signal (z-score),[55],0.819
same,glycan array binding signal (z-score),[56],-0.239
same,glycan array binding signal (z-score),[57],-1.08
same,glycan array binding signal (z-score),[58],0.203
same,glycan array binding signal (z-score),[59],-0.499
same,glycan array binding signal (z-score),[60],0.445

# For reference, some entries already given.
binder,measurement,setting,value
KILRGVCKKIMRTFLRRISKKILTGKK [C7A (Sus scrofa)],glycan array binding signal (z-score),[26],0.698
same,glycan array binding signal (z-score),[27],-0.922
